Experimental data from patent publication US20210261570A1, “ANTIBIOTIC RESISTANCE BREAKERS” (KING'S COLLEGE LONDON, priority 2017, published 2021).
At least one read-out could not be matched to a standard name with certainty.

Tested on: M6
Test: MIC, microdilution broth method
Format: cell-based
Conditions: Normal (without PMBN), in µg/mL

## C[C@H]1COc2c(N3CCC(n4cccn4)CC3)c(F)cc3c(=O)c(C(=O)O)cn1c23 [ML-83-041, (S)-10-(4-(1H-pyrazol-1-yl)piperidin-1-yl)-9-fluoro-3-methyl-7-oxo-2,3-dihydro-7H-[1,4]oxazino[2,3,4-ij]quinoline-6-carboxylic Acid]
  MIC: 2
